{"source": "paper PMC6968694", "about": "(Emerging Microbes & Infections, 2020)", "biological_target": "Glycinamide-RNase-transformylase T from Mycobacterium tuberculosis (Mycobacterium tuberculosis H37Rv) (UniProt A5TZB5)", "assay": "crystal structure; both purified", "note": "Results are given in words; binding and its absence hold for the method and conditions named. Some binding calls cover weakened binding; strength is not graded here. Where a sequence is shown, tags or fusion partners need not be part of it."}
{"binder": "Glycinamide-RNase-transformylase T from Mycobacterium tuberculosis (enzyme, also called MtbPurT; PurT) MIDGWTEEQHEPTVRHERPAAPQDVRRVMLLGSAEPSRELAIALQGLGAEVIAVDGYVGAPAHRIADQSVVVTMTDAEELTAVIRRLQPDFLVTVTAAVSVDALDAVEQADGECTELVPNARAVRCTADREGLRRLAADQLGLPTAPFWFVGSLGELQAVAVHAGFPLLVSPVAGVAGQGSSVVAGPNEVEPAWQRAAGHQVQPQTGGVSPRVCAESVVEIEFLVTMIVVCSQGPNGPLIEFCAPIGHRDADAGELESWQPQKLSTAALDAAKSIAARIVKALGGRGVFGVELMINGDEVYFADVTVCPAGSAWVTVRSQRLSVFELQARAILGLAVDTLMISPGAARVINPDHTAGRAAVGAAPPADALTGALGVPESDVVIFGRGLGVALATAPEVAIARERAREVASRLNVPDSRE", "values": [{"measurement": "binding", "value": "binds"}]}
